Data as given in PubChem BioAssay AID720505 (Drosophila RNAi Screening Center, 2013).

Aim: 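Fly regulators or components of the CRAC channel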 (primary screen)
Cells: Drosophila S2R+ cells
Reagents: long dsRNA against Drosophila genes
Treatment: thapsigargin (2 µM) in calcium-free buffer to empty internal stores, then 2 mM calcium added back
Measured: 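Fluo-4 signal in 384-well plates read on a FLIPR after thapsigargin (2 µM, calcium-free) store depletion and 2 mM calcium add-back; unnormalised mean endpoint per well; screen run twice, selected wells retested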
Direction: calcium signal and retest calcium signal: higher = more calcium entry after store depletion
Active means: 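About 1500 genes called as lowering calcium entry, by varying amounts, judged against per-plate control wells with STIM1 as positive and Rho1 as negative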
Calls: active = called as lowering calcium entry; inactive = not called
In all, the deposit lists about 20,000 reagents; below is an unselected part of those that have a named target and a result. Over the whole deposit, about 2,100 (10%) are marked active. 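Raw plate signals without normalisation; calls rest on control-based scores that were not deposited; replicate 2 separates called from uncalled poorly.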 Reagents against one gene are numbered here. A plus sign joins genes that one reagent is predicted to hit. Not given: the amount of reagent, the time to read-out.

gene	reagent	calcium signal, replicate 1	calcium signal, replicate 2	retest calcium signal, replicate 1	retest calcium signal, replicate 2	call
CG10307	1	89.5	93.9			inactive
Agxt	1	130	124			inactive
CG10029	1	97.3	122			inactive
CG33298	1	180	163			inactive
CG33298	2	102	117			inactive
CG8066	1	152	154			inactive
Nse4	1	143	159			inactive
Pdp1	1					active
Pdp1	2					active
Pdp1	3	89.9	63.7			inactive
Pdp1	4	86.4	69.3			inactive
CG34229	1	96.3	205			inactive
PolE1	1	195	283			inactive
Cpr65Ec	1	110	90			inactive
Pex14	1	105	131			inactive
CG1703	1	66.2	165			active
AttD	1	79.5	235			inactive
CG31278	1	153	104			inactive
CG32022	1	112	85.7			inactive

Continued, starting with the last 7 of the part before.
gene	reagent	calcium signal, replicate 1	calcium signal, replicate 2	retest calcium signal, replicate 1	retest calcium signal, replicate 2	call
PolE1	1	195	283			inactive
Cpr65Ec	1	110	90			inactive
Pex14	1	105	131			inactive
CG1703	1	66.2	165			active
AttD	1	79.5	235			inactive
CG31278	1	153	104			inactive
CG32022	1	112	85.7			inactive
Ak6	1	113	234			inactive
CG9130 + CG9133	1	59.9	90.2	98.9	103	inactive
CG9130 + CG9133	2	130	134			inactive
CG9130 + CG9133	3	98	152			inactive
Mad	1	108	115			inactive
CCT6	1	132	124			inactive
CG7879	1	122	96.8			inactive
CG13215	1	90.1	99.9			inactive
CCHa2-R	1	110	166			inactive
CCHa2-R	2	123	159			inactive
CCHa2-R	3	142	163			inactive
CG14693	1	160	93.2			inactive
CG1575	1	110	75.9			inactive
Eip93F	1					active
Eip93F	2	198	143			inactive
Eip93F	3	173	92.6			inactive
Eip93F	4	113	82.8			inactive
CG6421	1	106	108			inactive
pasha	1	105	110			inactive
trx	1	126	117			inactive
trv	1	185	174			inactive
trv	2	195	179			inactive
trv	3	193	146			inactive
Unr	1	96.5	87.9			inactive
Unr	2	119	87.3			inactive
CG44836	1	87.3	174			inactive
U3-55K	1	148	235			inactive
Nup93-1	1	76.4	55			active
CG5510	1	201	142			inactive
slou	1	178	100			inactive
H	1	212	194			inactive
lark	1	126	112			inactive
CG11456	1	166	121			inactive
CG13674	1	90.8	77.2			inactive
escl	1	122	143			inactive
M1BP	1	86.6	122			inactive
CG8701	1	213	129			inactive
